Where two headings read alike, the source gives them in different places. Results are given in words; binding and its absence hold for the method and conditions named. Binding seen in cells or lysates may run through a third protein. Some binding calls cover weakened binding; strength is not graded here.
Assays:
Experiment in all cases: co-IP; HT22 cell lysate, endogenous proteins; cells treated with nicotine (1, 10, 100 ng/mL), resveratrol, SRT1720, Selisistat, FK866, Nampt-IN-1, cotinine, β-galactose or an nAChR inhibitor; SIRT1 or NAMPT/PBEF antibody, protein A/G agarose, western blot; IgG as negative control
[1] = target: nicotinamide phosphoribosyl transferase (NAMPT) (mouse (endogenous in C57BL/6J tissues and HT22 cells)) (UniProt Q99KQ4)
[2] = target: T1, SIRT1 (mouse (endogenous in C57BL/6J tissues, HT22 and BV2 cells)) (UniProt Q923E4)
T1 sequence: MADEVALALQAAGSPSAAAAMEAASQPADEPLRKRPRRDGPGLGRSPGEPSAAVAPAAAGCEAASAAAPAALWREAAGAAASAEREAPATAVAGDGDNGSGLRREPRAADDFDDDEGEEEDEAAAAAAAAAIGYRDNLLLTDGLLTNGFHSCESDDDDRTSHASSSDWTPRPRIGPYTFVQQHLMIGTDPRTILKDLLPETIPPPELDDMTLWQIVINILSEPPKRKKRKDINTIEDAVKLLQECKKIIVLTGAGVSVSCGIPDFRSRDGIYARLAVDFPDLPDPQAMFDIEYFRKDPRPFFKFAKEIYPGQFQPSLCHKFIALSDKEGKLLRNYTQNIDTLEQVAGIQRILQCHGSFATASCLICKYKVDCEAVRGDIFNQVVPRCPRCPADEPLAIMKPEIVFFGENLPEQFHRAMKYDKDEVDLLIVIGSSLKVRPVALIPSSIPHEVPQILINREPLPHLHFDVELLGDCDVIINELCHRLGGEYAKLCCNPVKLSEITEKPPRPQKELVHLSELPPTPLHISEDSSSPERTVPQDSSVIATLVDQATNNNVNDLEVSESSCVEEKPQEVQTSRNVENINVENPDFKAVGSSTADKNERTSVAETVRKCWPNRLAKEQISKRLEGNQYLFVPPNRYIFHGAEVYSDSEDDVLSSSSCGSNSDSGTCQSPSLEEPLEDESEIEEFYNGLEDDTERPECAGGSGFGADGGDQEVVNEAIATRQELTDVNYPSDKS

Amino acid sequences for entries named in this document (tags omitted).
UniProt Q99KQ4: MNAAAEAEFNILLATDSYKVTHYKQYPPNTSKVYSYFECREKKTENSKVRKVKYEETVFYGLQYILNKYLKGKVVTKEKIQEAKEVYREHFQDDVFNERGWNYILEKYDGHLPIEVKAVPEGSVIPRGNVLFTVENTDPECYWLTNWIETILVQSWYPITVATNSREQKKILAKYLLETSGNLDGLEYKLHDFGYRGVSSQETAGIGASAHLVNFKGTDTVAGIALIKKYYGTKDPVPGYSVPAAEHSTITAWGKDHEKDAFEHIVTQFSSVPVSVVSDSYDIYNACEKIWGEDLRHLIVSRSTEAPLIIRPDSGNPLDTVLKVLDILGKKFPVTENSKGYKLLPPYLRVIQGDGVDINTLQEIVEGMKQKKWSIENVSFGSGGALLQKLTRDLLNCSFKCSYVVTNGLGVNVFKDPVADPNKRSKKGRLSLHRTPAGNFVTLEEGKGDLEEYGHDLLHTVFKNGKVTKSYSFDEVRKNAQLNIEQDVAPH
UniProt Q8BKJ9: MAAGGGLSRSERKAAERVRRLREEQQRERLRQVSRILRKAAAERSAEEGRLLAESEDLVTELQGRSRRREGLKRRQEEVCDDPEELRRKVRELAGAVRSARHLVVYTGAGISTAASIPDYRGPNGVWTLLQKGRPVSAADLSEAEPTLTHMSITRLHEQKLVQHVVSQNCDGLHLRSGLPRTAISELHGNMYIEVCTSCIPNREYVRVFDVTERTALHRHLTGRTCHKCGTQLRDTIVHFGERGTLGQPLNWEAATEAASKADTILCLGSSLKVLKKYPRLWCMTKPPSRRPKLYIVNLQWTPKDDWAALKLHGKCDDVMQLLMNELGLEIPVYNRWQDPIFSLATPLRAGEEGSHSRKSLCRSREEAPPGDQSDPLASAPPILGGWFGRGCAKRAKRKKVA
UniProt P02340: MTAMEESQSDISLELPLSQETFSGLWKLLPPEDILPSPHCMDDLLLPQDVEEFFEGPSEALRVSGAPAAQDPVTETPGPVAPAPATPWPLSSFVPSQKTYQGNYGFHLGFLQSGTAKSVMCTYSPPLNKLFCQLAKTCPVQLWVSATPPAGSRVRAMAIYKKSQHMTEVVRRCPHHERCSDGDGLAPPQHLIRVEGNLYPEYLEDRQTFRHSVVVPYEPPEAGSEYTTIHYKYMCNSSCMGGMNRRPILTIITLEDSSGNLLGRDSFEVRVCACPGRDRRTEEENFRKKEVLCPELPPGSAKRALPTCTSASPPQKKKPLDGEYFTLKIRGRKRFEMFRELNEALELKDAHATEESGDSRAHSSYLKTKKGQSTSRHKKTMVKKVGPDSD

[3] = target: T1, SIRT1 (mouse (endogenous in C57BL/6J tissues, HT22 and BV2 cells)); remark: listed apart in the source

## SIRT7 (from UniProt Q8BKJ9 1-402)
[1]
  binding: binds

## p53 (from UniProt P02340 1-390)
[2]
  binding: binds

B1: PGC-1α (protein, UniProt O70343 1-797)
chain: MAWDMCSQDSVWSDIECAALVGEDQPLCPDLPELDLSELDVNDLDTDSFLGGLKWCSDQSEIISNQYNNEPANIFEKIDEENEANLLAVLTETLDSLPVDEDGLPSFDALTDGAVTTDNEASPSSMPDGTPPPQEAEEPSLLKKLLLAPANTQLSYNECSGLSTQNHAANHTHRIRTNPAIVKTENSWSNKAKSICQQQKPQRRPCSELLKYLTTNDDPPHTKPTENRNSSRDKCASKKKSHTQPQSQHAQAKPTTLSLPLTPESPNDPKGSPFENKTIERTLSVELSGTAGLTPPTTPPHKANQDNPFKASPKLKPSCKTVVPPPTKRARYSECSGTQGSHSTKKGPEQSELYAQLSKSSGLSRGHEERKTKRPSLRLFGDHDYCQSLNSKTDILINISQELQDSRQLDFKDASCDWQGHICSSTDSGQCYLRETLEASKQVSPCSTRKQLQDQEIRAELNKHFGHPCQAVFDDKSDKTSELRDGDFSNEQFSKLPVFINSGLAMDGLFDDSEDESDKLSYPWDGTQPYSLFDVSPSCSSFNSPCRDSVSPPKSLFSQRPQRMRSRSRSFSRHRSCSRSPYSRSRSRSPGSRSSSRSCYYYESSHYRHRTHRNSPLYVRSRSRSPYSRRPRYDSYEAYEHERLKRDEYRKEHEKRESERAKQRERQKQKAIEERRVIYVGKIRPDTTRTELRDRFEVFGEIEECTVNLRDDGDSYGFITYRYTCDAFAALENGYTLRRSNETDFELYFCGRKQFFKSNYADLDTNSDDFDPASTKSKYDSLDFDSLLKEAQRSLRR
[3]
  binding: binds
